Results published in publication PMC6695207.

Amino acid sequences for entries named in this document (tags omitted). A change or cut given only in a name is not applied to a line headed by its entry.
UniProt Q9FMR9: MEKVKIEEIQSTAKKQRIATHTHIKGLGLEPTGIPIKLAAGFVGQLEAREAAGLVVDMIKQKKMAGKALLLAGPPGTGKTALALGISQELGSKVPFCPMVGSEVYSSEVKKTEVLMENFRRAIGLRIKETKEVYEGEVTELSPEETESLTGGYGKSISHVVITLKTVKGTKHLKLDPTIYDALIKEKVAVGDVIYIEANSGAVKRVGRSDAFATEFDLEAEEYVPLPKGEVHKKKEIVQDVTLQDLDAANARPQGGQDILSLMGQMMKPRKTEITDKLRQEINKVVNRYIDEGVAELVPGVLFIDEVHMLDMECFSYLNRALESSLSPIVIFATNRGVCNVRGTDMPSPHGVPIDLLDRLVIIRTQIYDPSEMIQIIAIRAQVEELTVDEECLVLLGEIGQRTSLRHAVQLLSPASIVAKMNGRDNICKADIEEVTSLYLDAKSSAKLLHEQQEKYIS
UniProt P40283: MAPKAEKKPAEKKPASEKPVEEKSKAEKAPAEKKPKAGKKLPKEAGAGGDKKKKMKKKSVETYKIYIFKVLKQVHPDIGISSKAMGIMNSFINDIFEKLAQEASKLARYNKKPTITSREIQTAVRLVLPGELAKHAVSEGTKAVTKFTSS
UniProt O23628: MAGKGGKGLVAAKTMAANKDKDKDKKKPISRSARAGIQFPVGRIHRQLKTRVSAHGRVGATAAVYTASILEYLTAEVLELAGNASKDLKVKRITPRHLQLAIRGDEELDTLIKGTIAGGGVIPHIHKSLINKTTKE
UniProt Q9SGH2: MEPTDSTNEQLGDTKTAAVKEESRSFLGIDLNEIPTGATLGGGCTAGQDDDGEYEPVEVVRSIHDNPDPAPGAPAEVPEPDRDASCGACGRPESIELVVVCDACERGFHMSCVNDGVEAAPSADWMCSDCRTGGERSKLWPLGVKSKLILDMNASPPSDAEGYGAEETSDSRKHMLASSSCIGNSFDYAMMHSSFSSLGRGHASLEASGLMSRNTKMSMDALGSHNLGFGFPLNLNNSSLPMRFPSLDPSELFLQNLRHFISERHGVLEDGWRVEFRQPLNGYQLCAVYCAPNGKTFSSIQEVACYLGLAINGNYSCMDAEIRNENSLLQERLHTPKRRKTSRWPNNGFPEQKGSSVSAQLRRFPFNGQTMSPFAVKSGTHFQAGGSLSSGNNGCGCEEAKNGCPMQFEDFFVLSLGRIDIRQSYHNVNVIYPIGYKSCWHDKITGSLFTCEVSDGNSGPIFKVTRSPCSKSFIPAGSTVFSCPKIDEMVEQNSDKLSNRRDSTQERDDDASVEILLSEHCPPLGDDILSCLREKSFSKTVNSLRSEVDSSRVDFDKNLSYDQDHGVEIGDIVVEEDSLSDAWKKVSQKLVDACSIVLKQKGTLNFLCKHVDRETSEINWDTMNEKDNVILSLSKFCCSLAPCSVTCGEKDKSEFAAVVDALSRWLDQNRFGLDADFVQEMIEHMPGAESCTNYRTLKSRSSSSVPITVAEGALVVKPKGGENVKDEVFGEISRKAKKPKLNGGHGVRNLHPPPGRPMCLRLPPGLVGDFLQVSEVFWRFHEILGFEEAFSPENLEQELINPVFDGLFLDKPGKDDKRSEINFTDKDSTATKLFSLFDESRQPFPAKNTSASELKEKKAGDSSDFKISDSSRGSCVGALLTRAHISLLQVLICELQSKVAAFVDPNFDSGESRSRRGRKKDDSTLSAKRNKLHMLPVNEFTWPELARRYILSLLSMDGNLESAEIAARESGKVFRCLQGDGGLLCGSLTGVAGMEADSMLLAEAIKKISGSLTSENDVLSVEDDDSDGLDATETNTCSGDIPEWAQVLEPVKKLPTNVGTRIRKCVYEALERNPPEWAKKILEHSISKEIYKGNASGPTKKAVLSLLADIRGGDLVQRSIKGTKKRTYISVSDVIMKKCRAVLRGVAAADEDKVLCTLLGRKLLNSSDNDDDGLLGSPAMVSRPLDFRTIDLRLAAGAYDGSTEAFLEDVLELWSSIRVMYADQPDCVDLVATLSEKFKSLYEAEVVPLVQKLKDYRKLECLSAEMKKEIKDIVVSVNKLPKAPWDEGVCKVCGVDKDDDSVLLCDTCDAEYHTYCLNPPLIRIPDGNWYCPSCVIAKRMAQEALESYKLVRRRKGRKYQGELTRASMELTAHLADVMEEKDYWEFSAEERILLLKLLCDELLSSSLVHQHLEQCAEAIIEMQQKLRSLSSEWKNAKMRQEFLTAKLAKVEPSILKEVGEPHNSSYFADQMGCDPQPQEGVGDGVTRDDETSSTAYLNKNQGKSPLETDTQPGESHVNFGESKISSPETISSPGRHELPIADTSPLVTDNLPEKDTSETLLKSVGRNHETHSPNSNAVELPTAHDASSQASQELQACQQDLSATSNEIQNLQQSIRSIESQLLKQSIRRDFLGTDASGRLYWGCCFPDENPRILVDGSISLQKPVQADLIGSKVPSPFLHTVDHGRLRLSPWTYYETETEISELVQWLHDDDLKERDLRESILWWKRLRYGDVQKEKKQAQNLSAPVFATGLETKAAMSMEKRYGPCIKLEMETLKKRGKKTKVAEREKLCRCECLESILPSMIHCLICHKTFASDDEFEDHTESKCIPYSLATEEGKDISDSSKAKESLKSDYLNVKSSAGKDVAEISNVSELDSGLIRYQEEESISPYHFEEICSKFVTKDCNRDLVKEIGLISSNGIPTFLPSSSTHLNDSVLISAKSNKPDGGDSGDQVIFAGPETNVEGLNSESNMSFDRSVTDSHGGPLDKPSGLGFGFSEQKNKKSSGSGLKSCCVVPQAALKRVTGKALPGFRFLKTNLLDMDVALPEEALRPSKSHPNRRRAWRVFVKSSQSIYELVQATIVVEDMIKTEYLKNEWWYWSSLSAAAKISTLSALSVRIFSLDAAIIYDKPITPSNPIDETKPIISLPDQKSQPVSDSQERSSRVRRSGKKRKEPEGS
UniProt Q9FFC0: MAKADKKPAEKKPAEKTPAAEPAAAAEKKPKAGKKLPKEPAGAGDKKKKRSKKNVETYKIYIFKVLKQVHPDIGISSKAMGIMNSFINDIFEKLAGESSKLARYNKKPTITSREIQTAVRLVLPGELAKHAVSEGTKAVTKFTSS
UniProt F4K569: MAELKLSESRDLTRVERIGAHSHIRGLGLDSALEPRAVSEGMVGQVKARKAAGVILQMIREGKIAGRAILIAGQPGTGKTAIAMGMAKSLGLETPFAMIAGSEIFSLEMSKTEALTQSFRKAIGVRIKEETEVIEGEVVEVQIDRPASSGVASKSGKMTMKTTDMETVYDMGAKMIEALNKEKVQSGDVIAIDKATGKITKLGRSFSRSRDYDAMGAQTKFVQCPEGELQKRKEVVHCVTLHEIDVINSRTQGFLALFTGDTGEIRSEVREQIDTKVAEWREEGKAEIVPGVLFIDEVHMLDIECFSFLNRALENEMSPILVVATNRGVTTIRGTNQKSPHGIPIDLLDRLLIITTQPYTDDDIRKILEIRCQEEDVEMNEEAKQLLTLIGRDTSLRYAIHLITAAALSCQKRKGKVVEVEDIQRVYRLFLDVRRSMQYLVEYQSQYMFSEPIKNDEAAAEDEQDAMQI

Key:
Test in all cases: affinity purification with mass spectrometry; tandem affinity purification (IgG-Sepharose, then streptavidin-Sepharose columns, washes at 4°C) of GS^rhino-tagged ARP6 from 50 g of 6-day-old transgenic seedlings; on-bead digestion, LC-MS/MS; hits filtered against a WT TAP and the list of 760 known non-specific binders of the tag
[1] = target: T1, C-TAP-ARP6 (ACTIN RELATED PROTEIN 6 with the GS^rhino TAP-tag at its C-terminal end) (Arabidopsis thaliana) (UniProt Q8LGE3)
T1 sequence: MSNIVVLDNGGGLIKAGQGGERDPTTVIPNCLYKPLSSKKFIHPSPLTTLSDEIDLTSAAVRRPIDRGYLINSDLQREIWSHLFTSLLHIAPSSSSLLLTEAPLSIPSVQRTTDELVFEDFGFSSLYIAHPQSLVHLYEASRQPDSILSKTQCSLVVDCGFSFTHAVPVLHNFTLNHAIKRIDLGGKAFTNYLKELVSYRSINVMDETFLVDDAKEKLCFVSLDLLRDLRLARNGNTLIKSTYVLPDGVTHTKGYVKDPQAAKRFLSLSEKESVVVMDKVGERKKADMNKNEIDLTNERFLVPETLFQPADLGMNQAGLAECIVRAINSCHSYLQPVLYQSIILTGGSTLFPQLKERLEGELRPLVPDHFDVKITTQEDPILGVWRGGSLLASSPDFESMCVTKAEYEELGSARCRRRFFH

[2] = target: T2, N-TAP-ARP6 (ACTIN RELATED PROTEIN 6 with the GS^rhino TAP-tag at its N-terminal end) (Arabidopsis thaliana) (UniProt Q8LGE3)
T2 sequence: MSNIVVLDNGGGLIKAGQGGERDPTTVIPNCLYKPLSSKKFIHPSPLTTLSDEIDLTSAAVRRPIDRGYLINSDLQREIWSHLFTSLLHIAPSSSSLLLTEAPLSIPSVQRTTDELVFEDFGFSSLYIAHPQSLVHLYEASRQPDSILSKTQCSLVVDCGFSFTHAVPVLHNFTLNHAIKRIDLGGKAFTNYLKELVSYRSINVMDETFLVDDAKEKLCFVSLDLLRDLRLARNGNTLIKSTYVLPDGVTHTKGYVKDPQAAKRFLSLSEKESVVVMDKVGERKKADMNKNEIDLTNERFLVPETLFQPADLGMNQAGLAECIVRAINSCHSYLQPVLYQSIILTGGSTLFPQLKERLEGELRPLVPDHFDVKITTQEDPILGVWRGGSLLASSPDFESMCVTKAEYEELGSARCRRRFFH

[3] = target: T1, C-TAP-ARP6 (ACTIN RELATED PROTEIN 6 with the GS^rhino TAP-tag at its C-terminal end) (Arabidopsis thaliana); remark: listed apart in the source
[4] = target: T2, N-TAP-ARP6 (ACTIN RELATED PROTEIN 6 with the GS^rhino TAP-tag at its N-terminal end) (Arabidopsis thaliana); remark: listed apart in the source

Molecule	binding [1]	binding [2]	binding [3]	binding [4]
RuvB1 (from UniProt Q9FMR9 1-458)	binds	binds		
HTB4 (H2B histone) (from UniProt P40283 1-150)	binds	binds		
PHOTOPERIOD-… EARLY FLOWERING 1 (PIE1) (from UniProt Q7X9V2 1-2055)	binds			
HTA11 (H2A.Z paralog) (from UniProt O23628 1-136)	binds	binds		
Methyl-CpG-BINDING DOMAIN 9 (MBD9), endogenous (from UniProt Q9SGH2 1-2176)	binds	binds		
HTB2 (H2B histone) (from UniProt Q9FFC0 1-145)	binds	binds		
TRA1B	binds	binds		
TRA1A (from UniProt F4IPJ1)	binds	binds		
AL6 (Alfin1-like family) (protein, UniProt Q8S8M9 1-256) MEGITHPIPRTVEEVFSDFRGRRAGLIKALTNDMVKFYQTCDPEKENLCLYGLPNETWEVNLPVEEVPPELPEPALGINFARDGMQEKDWVSLVAVHSDSWLLSVAFYFGARFGFGKNERKRLFQMINELPTIFEVVSGNAKQSKDLSVNNNNSKSKPSGVKSRQSESLSKVAKMSSPPPKEEEEEEDESEDESEDDEQGAVCGACGDNYGTDEFWICCDACEKWFHGKCVKITPAKAEHIKHYKCPTCSNKRARP			binds	binds
SWR1 COMPLEX SUBUNIT 2 (SWC2) (protein, UniProt F4IP06 1-365) MEIDEEEPMVFLDRTTRATRGKRMTKLLDDEVEEDEQFWNQEALKEEEHDDEYEAEREVADEFDSDFNDDEPEPDAVAVNEKELRDLPKKRLIYPGKTASKKKKKKTKVVSQLEYIPGDEKPGEELGNKEQEEKEENEAQEDMEGEKVIRKSTRTSVVVRQAERDALRAAIQATTKPIQRKKVGEEKRMTQEEMLLEAAQTEIMNLRNLERVLAREEEVKKKAIVHKAVYKGPQIRYHSKDGCNYLEFCNGASFNSELSTKSVPYPEKAVCVITGLPAKYRDPKTGLPYATRDAFKAIRERFMDEHDGLRKKMEMGDLFDTLVAKGFATKQKRTKIPKSNKSFSLRSSARFLSSESEEESEEDSD			binds	binds
AL7 (Alfin1-like family) (protein, UniProt Q8LA16 1-252) MEGIQHPIPRTVEEVFSDFRGRRAGLIKALSTDVQKFYHQCDPEKENLCLYGLPNETWEVNLPVEEVPPELPEPALGINFARDGMQEKDWISLVAVHSDSWLISVAFYFGARFGFGKNERKRLFQMINDLPTIFEVVTGNAKQSKDQSANHNSSRSKSSGGKPRHSESHTKASKMSPPPRKEDESGDEDEDDEQGAVCGACGDNYGGDEFWICCDACEKWFHGKCVKITPAKAEHIKHYKCPSCTTSKKMKA			binds	binds
YAF9b (protein, UniProt F4IPK2 1-268) MESDIEILSEADASMRKLRIFGIDDREDENGRRRIKDVEVYVPIVCGSIAFYLGKKATEYRTHKWTVYVRGATNEDLGVVIKRVIFHLHPSFNNPTRVVDAPPFALSECGWGEFKIDITVFFHTDVCEKKLELSHVLKLNPENAYGPIPKSIKIPVVAESYNEVVFPDPFESFVARVHNHPAIQISNIPDGLNLPPPGVADTYYLMEKGDTKEHPLSPWFLKFSEVEELFKLTAARQKVQADIAKLKRQLIMVDGQPEGLESSSGYEC			no binding	no binding

More lines, now with the values ahead:

binding [1]	binding [2]	binding [3]	binding [4]	Molecule
binds	binds			RuvB2 (from UniProt F4K569)
		binds	binds	ALFIN-LIKE 5 (AL5) (protein, UniProt Q5XEM9 1-260) MEGGTAHYSPRTVEEVFRDFKGRRAGIIQALTTDVEDFFQQCDPEKQNLCLYGFPNEVWEVNLPAEEVPPELPEPALGINFARDGMQERNWLSLVAVHSDAWLLSVSFYFGSRFGFDRADRKRLFSMINEVPTVYEVVTGNAEKQTKEMPSSANQNGNRSKSNSKMRGLESKSSKTIHAKDEEEGLELEEGEEEEDEDEDEHGETLCGACGDNYASDEFWICCDMCEKWFHGECVKITPARAEHIKHYKCPTCSNKRARP
		binds	binds	SWC4 (protein, UniProt Q8VZL6 1-441) MGGTDAKDILGLPKTPLSLTQEKKSRPQKESHRKPDGISREVYALTGGVAPLMPSIDLKRRPPADEKVAWKWLSFTNSARKDDLQLYHWVRVVNDVPPTGDYSFAKYNKSVDILKYTDEEYENHLTDSVWTKEETDQLFEFCQNFDLRFVVIADRFPVSRTVEELKDRYYSVNRALLRARAQSPADVANHPLMKEPYDITRDRERKRALSMVLSQSRHQEKKDAEILAEAKRITEMRLAARRAEEPDVSANENAGLDKADGVVPGRSVSPTSNSQLPATAVAPSTLTMADYASTLASLRMLHVYLRTYGLEQMVQAASSAVGLRTIKRVEQTLQDLGVNLKPKVPTKTVCDEHLELRKEILTLLNLQKQLQYKESEGSSHREGSYAAMPDTPKDRVFAPDPFSFGAERPIKKEQKRKGPGRQADTPSPAHKRPRKLKASDL
		binds	binds	SWC6 (protein, UniProt Q9FHW2 1-171) MEEEMSNRRVSNRTRKVATKMAAALTSNDNRTQAAIARLEALENDNGAIEVIDLNDDEEASLDEDDDLGYLQKKQHKGSKRKTRQAKALEARKAPKSFLELLQEANLESLPSHVPTYLKAAVGPPSSSSRRYFCSVCGYIAGYNCCLCGMRFCSIRCQNIHKDTRCQKFVA
		binds	binds	ARP4 (protein, UniProt Q84M92 1-441) MYGGDEVSAIVVDLGSHTCKAGYAGEDAPKAVFPSVIGAVDGVEAMDVDVDSTKTNSNSEDSKTESEKEKSKRKLYVGSQAMSYRRDHMEVLSPIKDGIVSDWDLVDNIWEHAFKSCLMIDPTEHPMLLAEPPLNTQQQREKAAELMFEKYKVPALFMAKNPVLTSFATGRATSLVVDCGGGSTTISPVHDGYVLQKAVVSSPLGGEFLTDCLLKSLESKGIKIRPRYSFKRKEVRAGEFQVEDVDIPDTTESYKLFCQRMIVGDIKDSICRVPDTPYDDKSYSNIPTTSYELPDGQTLEIGADRFKVPDVMFNPSIVQTIPGMEKYAEMIPSVRGLPHMVMESINKCDVDIRRELYSSILLAGGTSSMQQLKERLEKDLIEESPHSARVKVLASGNTTERRFSVWIGGSILASLGSFQQMWFSKSEYEEHGASYIQRKCP
		binds	binds	YAF9a (protein, UniProt Q9FH40 1-268) MTNSSSSKKQAQDQPETSEPTLKSLKTKMTKSDEKQKKLKDIEISVPIVYGNVAFWLGKKASEYQSHKWAVYVRGATNEDISVVVKKVVFQLHSSFNSPTRVIEEPPFEVSESGWGEFEIAMTLHFHSDVCDKPLSLYHHLKLYPEDESGPLTMKKPVVVESYDEIVFPDPSESFLARVQNHPALTFPRLPSGYNLPAPMQVEDTGKKKRGDTKDHSLGQWFMSFSEADELLQLAAARQQVQAHIAKLRRQISLLEGQNQTVKTGSDL

Read-outs that look alike come from different tables or passages of the source. These are yes or no findings as the source states them, for the method shown. In cells and extracts the contact can be indirect. Here binding means that the protein was enriched with, or labelled near, the bait; the list need not be complete. For some assays here: No binding means not detected with the bait. Tags and fused reporters may be left off the sequences shown.
